Values from PubChem BioAssay AID743121 (NCATS, 2013)

- Screen: 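Partners whose loss is lethal together with topoisomerase I blockade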 (primary screen)
- System: MDA-MB-231 cells, a human breast cancer line
- Reagents: single siRNA against human genes, 20 nM siRNA (0.8 pmol per well)
- Duration: 120 h (drug added 48 h after transfection, read 72 h later)
- Treatment: camptothecin 20 nM (about EC30) for 72 h; vehicle 0.1% DMSO in parallel plates
- Measurement: 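CellTiter-Glo ATP signal, scaled to control siRNA as percent viability; sensitisation given as log2 of untreated divided by camptothecin-treated viability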
- Scale: log2 vehicle/camptothecin viability: higher = stronger sensitisation to camptothecin
- Call rule: 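Each gene scored by redundant siRNA activity (RSA) over its individual siRNA ratios; a gene is called active at p < 0.001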
Here is a random part of about 26,000 reagents tested. In the full data, 167 (0.63%) were called active. 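Calls are per gene from RSA p-values that are not deposited; an individual active-marked siRNA can sensitise only weakly.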 A number with no mark means an inactive call. Reagents against one gene are numbered here. Further read-outs or replicates are left out here.

How did the screen score LSR #1?
log2 vehicle/camptothecin viability: 0.0608

How did the screen score LSR #2?
log2 vehicle/camptothecin viability: 0.251

For LSR #3, what was measured?
log2 vehicle/camptothecin viability: -0.415

How did the screen score LSR #4?
log2 vehicle/camptothecin viability: -0.087

With FBXO33 #1, how do the results read?
log2 vehicle/camptothecin viability: -0.285

With FBXO33 #2, what was measured?
log2 vehicle/camptothecin viability: -0.396

For FBXO33 #3, what was measured?
log2 vehicle/camptothecin viability: -0.256

For FBXO33 #4, what does the deposit list?
log2 vehicle/camptothecin viability: -0.233

How did the screen score ABCC1 #1?
log2 vehicle/camptothecin viability: -0.364

How did the screen score ABCC1 #2?
log2 vehicle/camptothecin viability: 0.0888

How did the screen score ABCC1 #3?
log2 vehicle/camptothecin viability: -0.306

Which result is listed for ABCC1 #4?
log2 vehicle/camptothecin viability: 0.0621

What did the screen give for RNF122 #1?
log2 vehicle/camptothecin viability: -0.15

What did the screen give for RNF122 #2?
log2 vehicle/camptothecin viability: -0.552

For RNF122 #3, what does the deposit list?
log2 vehicle/camptothecin viability: 0.236

For RNF122 #4, what was measured?
log2 vehicle/camptothecin viability: 0.182

What did the screen give for PDK3 #1?
log2 vehicle/camptothecin viability: -0.0166

For PDK3 #2, how do the results read?
log2 vehicle/camptothecin viability: -0.0383

How did the screen score PDK3 #3?
log2 vehicle/camptothecin viability: -0.0258

With PDK3 #4, what does the deposit list?
log2 vehicle/camptothecin viability: -0.265

With ASB2 #1, what does the deposit list?
log2 vehicle/camptothecin viability: -0.697

With ASB2 #2, how do the results read?
log2 vehicle/camptothecin viability: -0.274

With ASB2 #3, what does the deposit list?
log2 vehicle/camptothecin viability: -0.391

With ASB2 #4, how do the results read?
log2 vehicle/camptothecin viability: 0.0271

How did the screen score CPS1 #1?
log2 vehicle/camptothecin viability: -0.514

What is on record for CPS1 #2?
log2 vehicle/camptothecin viability: -0.0801

For CPS1 #3, how do the results read?
log2 vehicle/camptothecin viability: -0.0925

With CPS1 #4, what was measured?
log2 vehicle/camptothecin viability: -0.135

Which result is listed for HDAC6 #1?
log2 vehicle/camptothecin viability: -0.126

Which result is listed for HDAC6 #2?
log2 vehicle/camptothecin viability: -0.18

How did the screen score HDAC6 #3?
log2 vehicle/camptothecin viability: 0.0197

What is on record for HDAC6 #4?
log2 vehicle/camptothecin viability: -0.0695

What is on record for TOP1P1 #1?
log2 vehicle/camptothecin viability: -0.481

For TOP1P1 #2, what does the deposit list?
log2 vehicle/camptothecin viability: 0.00251

What did the screen give for TOP1P1 #3?
log2 vehicle/camptothecin viability: -0.255

What did the screen give for TOP1P1 #4?
log2 vehicle/camptothecin viability: -0.00201

Already shown: 2 of the entries above.
HDAC6 #4: log2 vehicle/camptothecin viability = -0.0695
TOP1P1 #1: log2 vehicle/camptothecin viability = -0.481
